These are yes or no findings as the source states them, for the method shown. Some entries that bind do so weakly or less than the wild type.

In this assay the target is human transferrin receptor-Fc tag standard (human) (UniProt P02786). In words: ELISA on plate-bound hTfR-Fc with anti-His detection.

B1: huHF_Mutant2-dual (designed binder, not shown: small tags and cut ends)
chain: MTTASTSQVRQNYHAASEAAINAQINLELYASYVYLSMSYYFDRDDVALKNFAKYFLHQSHEEREHAEKLMKLQNQRGGRIALADIQKPDCDDGGSYGSLYAFDIWESGLNAMECALHLEKNVNQSLLALHALATAKNDPHLCDFIETHYLNEQVKAIKELGDHVTNLRKMGAPESGLAEYLFDKHTLGDSDNESMPSFITLASLSTWEGYFDF
Take B1: the binding entry is “binds”.
